Test results reported in the supplement of paper PMC8007513.
The other results are listed elsewhere or left out. Repeats are few or missing, and single values can be far off.

What follows are molecules tested on Saccharomyces cerevisiae BY4743 (assay: growth (OD600) with compound + IPBC relative to untreated control; higher = less growth inhibition). Details: compound concentration: 133 uM; IPBC concentration: 0.5 ug/ml; 20 h.
Method: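 NMCCC compounds (133 uM) combined with IPBC (0.5 ug/ml) against Saccharomyces cerevisiae BY4743 in YPD, 96-well plates. Growth was read as OD600 at 20 h and expressed as % of the untreated control. Single pass.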

Structure (SMILES)	growth [%]
CCn1c(SCc2cc(C)on2)nnc1C1CC1 + CCCCNC(=O)OCC#CI [3-iodo-2-propynyl butylcarbamate (IPBC)]	95.8
Cc1ccc(CNC(=O)Cc2cn3ccsc3n2)n1C + CCCCNC(=O)OCC#CI [3-iodo-2-propynyl butylcarbamate (IPBC)]	100
CN1CCc2nc(SCc3cccc(C(F)(F)F)c3)c(C#N)cc2C1 + CCCCNC(=O)OCC#CI [3-iodo-2-propynyl butylcarbamate (IPBC)]	101
O=C(Nc1cc(Cl)ccc1-n1cncn1)c1cncc(Br)c1 + CCCCNC(=O)OCC#CI [3-iodo-2-propynyl butylcarbamate (IPBC)]	84.5
CN1C(=O)\C=C(\CNC(=O)CCNC(=O)C2=CC(=NC3=CC=CC=C23)O)N(C)C1=O + CCCCNC(=O)OCC#CI [3-iodo-2-propynyl butylcarbamate (IPBC)]	84.6
CCN(CC)S(=O)(=O)c1ccc(Cl)c(NC(=O)COc2ncnc3sccc23)c1 + CCCCNC(=O)OCC#CI [3-iodo-2-propynyl butylcarbamate (IPBC)]	95.7
Cc1ccccc1NS(=O)(=O)c1ccc(C(=O)NN2CCCCC2)cc1 + CCCCNC(=O)OCC#CI [3-iodo-2-propynyl butylcarbamate (IPBC)]	105
CC(Oc1ccc(NC(=O)c2ccco2)cc1)C(=O)NCc1ccc(Cl)cc1 (stereo unspecified) + CCCCNC(=O)OCC#CI [3-iodo-2-propynyl butylcarbamate (IPBC)]	114
COC(=O)c1nn(CC(=O)c2ccc(F)cc2)c2ccccc12 + CCCCNC(=O)OCC#CI [3-iodo-2-propynyl butylcarbamate (IPBC)]	100
COc1ccc(Cl)cc1-c1n[nH]c(SCC(=O)N(CCC#N)c2ccccc2)n1 + CCCCNC(=O)OCC#CI [3-iodo-2-propynyl butylcarbamate (IPBC)]	112
Cc1cc(C)c(NC(=O)CNC(=O)CCc2ccc(C3CC3C)o2)c(C)c1 (stereo unspecified) + CCCCNC(=O)OCC#CI [3-iodo-2-propynyl butylcarbamate (IPBC)]	104
CC1=CC=C(C)C(=C1)[S](=O)(=O)N(CC2=CC=CC=C2)C\3C[S](=O)(=O)\C=C3 (stereo unspecified) + CCCCNC(=O)OCC#CI [3-iodo-2-propynyl butylcarbamate (IPBC)]	89.1
Cc1cc(C(=O)CSc2ncccn2)c(C)n1-c1cccc(F)c1 + CCCCNC(=O)OCC#CI [3-iodo-2-propynyl butylcarbamate (IPBC)]	98.7
CCOC(=O)c1c(C)[nH]c(CN(Cc2ccc(C)cc2)S(=O)(=O)c2c(C)noc2C)c1C + CCCCNC(=O)OCC#CI [3-iodo-2-propynyl butylcarbamate (IPBC)]	92.6
Cc1nc(SC(C)C(=O)N2CCNC2=O)c(C#N)c(C)c1C (stereo unspecified) + CCCCNC(=O)OCC#CI [3-iodo-2-propynyl butylcarbamate (IPBC)]	86.5
CCCc1nnc(CSc2nnc(-c3ccc(NC(C)=O)cc3)o2)o1 + CCCCNC(=O)OCC#CI [3-iodo-2-propynyl butylcarbamate (IPBC)]	92.5

An excerpt of these results, in markdown.

| Structure (SMILES) | growth [%] |
| --- | --- |
| Cc1ccccc1NS(=O)(=O)c1ccc(C(=O)NN2CCCCC2)cc1 + CCCCNC(=O)OCC#CI [3-iodo-2-propynyl butylcarbamate (IPBC)] | 105 |
| CC(Oc1ccc(NC(=O)c2ccco2)cc1)C(=O)NCc1ccc(Cl)cc1 (stereo unspecified) + CCCCNC(=O)OCC#CI [3-iodo-2-propynyl butylcarbamate (IPBC)] | 114 |

Remaining list, next part:

Structure (SMILES)	growth [%]
CCSc1nnc2c(=O)[nH]c(=O)[nH]c2n1 + CCCCNC(=O)OCC#CI [3-iodo-2-propynyl butylcarbamate (IPBC)]	90.8
CCOc1ccc(N2C(=O)N(CC(=O)NCCC(C)C)c3ccccc3S2(=O)=O)cc1 + CCCCNC(=O)OCC#CI [3-iodo-2-propynyl butylcarbamate (IPBC)]	98.1
COC(=O)COc1ccc(NC(=O)c2ccc(O)nn2)cc1 + CCCCNC(=O)OCC#CI [3-iodo-2-propynyl butylcarbamate (IPBC)]	104
CC1CCN(c2ccc(NC(=O)CSc3nc(C(C)C)n[nH]3)cc2)CC1 + CCCCNC(=O)OCC#CI [3-iodo-2-propynyl butylcarbamate (IPBC)]	96
CCN(CC(=O)NCc1cccs1)C(=O)c1ccc(-n2cccn2)cc1 + CCCCNC(=O)OCC#CI [3-iodo-2-propynyl butylcarbamate (IPBC)]	90.3
O=C(CCSc1nc(-c2ccco2)cc(C(F)(F)F)n1)NCCN1CCOCC1 + CCCCNC(=O)OCC#CI [3-iodo-2-propynyl butylcarbamate (IPBC)]	82.5
CCCN(CCC)C(=O)CN1\N=C/C2=C(C)[N](CC3=CC=CC=C3)C(=C2C1=O)C + CCCCNC(=O)OCC#CI [3-iodo-2-propynyl butylcarbamate (IPBC)]	108
CCOC(=O)N1CCN(C(=O)CNS(=O)(=O)c2ccc(Cl)c(C(F)(F)F)c2)CC1 + CCCCNC(=O)OCC#CI [3-iodo-2-propynyl butylcarbamate (IPBC)]	86.9
CCC(C)N\1C(=O)C2=CC=CC=C2\N=C1SCC(=O)N3CCNC3=O (stereo unspecified) + CCCCNC(=O)OCC#CI [3-iodo-2-propynyl butylcarbamate (IPBC)]	77.3
COC(=O)COC1=CC=C2C(=O)\C(=C/OC2=C1)OC3=CC=C(C=C3)C(C)(C)C + CCCCNC(=O)OCC#CI [3-iodo-2-propynyl butylcarbamate (IPBC)]	103
CCN(CC)S(=O)(=O)c1cc(-c2nnc(O)c3ccccc23)ccc1C + CCCCNC(=O)OCC#CI [3-iodo-2-propynyl butylcarbamate (IPBC)]	86.5
Cc1cc(NC(=O)CSCC(=O)OCc2ccc(-n3cccn3)cc2)no1 + CCCCNC(=O)OCC#CI [3-iodo-2-propynyl butylcarbamate (IPBC)]	102
CC(C)C1C(=O)Nc2ccc(S(=O)(=O)N3CCCCCC3)cc21 (stereo unspecified) + CCCCNC(=O)OCC#CI [3-iodo-2-propynyl butylcarbamate (IPBC)]	102
COc1ccc(-c2cnn3c(C(F)(F)F)cc(C(F)(F)F)nc23)cc1OC + CCCCNC(=O)OCC#CI [3-iodo-2-propynyl butylcarbamate (IPBC)]	102
O=C(c1cc[nH]n1)N1CCc2sccc2C1 + CCCCNC(=O)OCC#CI [3-iodo-2-propynyl butylcarbamate (IPBC)]	97.8
